Not every detail of the peptide structures is certain; ends, links or a residue may be inferred. Square brackets hold non-standard residues; d marks the D form. Peptide text beside a SMILES is read from it. MeBmt = C/C=C/C[C@@H](C)[C@@H](O)[C@H](NC)C(=O)O; NMeL = CN[C@@H](CC(C)C)C(=O)O; NMeV = CN[C@H](C(=O)O)C(C)C; Nva = CCC[C@H](N)C(=O)O; Sar = CNCC(=O)O
Assays:
mouse-spleen lymphocytes = test: Test 1.2: lymphocyte stimulation test according to Janossy and Greaves (concanavalin A stimulated DNA-synthesis, H3-thymidine incorporation); format: cell-based; conditions: 50% inhibition compared with untreated controls
[1] = system: Plasmodium berghei (strain NK 65); test: Test 3: anti-malaria test according to L. Rane; format: in vivo; conditions: dosage at which survival time is doubled; mice (OF1) infected i.p., substance s.c. on day 3

In the case of `C/C=C/C[C@@H](C)[C@@H](O)[C@H]1C(=O)N[C@@H](CC)C(=O)N(C)CC(=O)N(C)[C@@H](CC(C)C)C(=O)N[C@@H](C(C)C)C(=O)N(C)[C@@H](CC(C)C)C(=O)N[C@@H](C)C(=O)N[C@H]([C@H](C)O)C(=O)N(C)[C@@H](CC(C)C)C(=O)N(C)[C@@H](CC(C)C)C(=O)N(C)[C@@H](C(C)C)C(=O)N1C` [A, [(D)Thr]^8 -Cyclosporine], the “TEST 1.2 IC50” value (mouse-spleen lymphocytes) is reported as 0.0016 µg/mL and the “TEST 3 MED (minimum effective dosage)” value [1] is reported as 50 mg/kg s.c.

In the case of `C/C=C/C[C@@H](C)[C@@H](O)[C@H]1C(=O)N[C@@H](CCC)C(=O)N(C)CC(=O)N(C)[C@@H](CC(C)C)C(=O)N[C@@H](C(C)C)C(=O)N(C)[C@@H](CC(C)C)C(=O)N[C@@H](C)C(=O)N[C@H](CO)C(=O)N(C)[C@@H](CC(C)C)C(=O)N(C)[C@@H](CC(C)C)C(=O)N(C)[C@@H](C(C)C)C(=O)N1C` [B, [Nva]^2-[(D)Ser]^8 -Cyclosporine] (cyclo(A[dS][NMeL][NMeL][NMeV][MeBmt][Nva][Sar][NMeL]V[NMeL])), the “TEST 1.2 IC50” value (mouse-spleen lymphocytes) is reported as less than 0.04 µg/mL and the “TEST 3 MED (minimum effective dosage)” value [1] is reported as 50 mg/kg s.c.

With `C/C=C/C[C@@H](C)[C@@H](O)[C@H]1C(=O)N[C@@H](CCC)C(=O)N(C)CC(=O)N(C)[C@@H](CC(C)C)C(=O)N[C@@H](CCC)C(=O)N(C)[C@@H](CC(C)C)C(=O)N[C@@H](C)C(=O)N[C@H](CO)C(=O)N(C)[C@@H](CC(C)C)C(=O)N(C)[C@@H](CC(C)C)C(=O)N(C)[C@@H](C(C)C)C(=O)N1C` [C, [Nva]^2-[Nva]^5-[(D)Ser]^8 -Cyclosporine] (cyclo(A[dS][NMeL][NMeL][NMeV][MeBmt][Nva][Sar][NMeL][Nva][NMeL])) the “TEST 1.2 IC50” value (mouse-spleen lymphocytes) was less than 0.04 µg/mL and the “TEST 3 MED (minimum effective dosage)” value [1] was 100 mg/kg s.c.

For `C/C=C/C[C@@H](C)[C@@H](O)[C@H]1C(=O)N[C@@H](CC)C(=O)N(C)CC(=O)N(C)[C@@H](CC(C)C)C(=O)N[C@@H](C(C)C)C(=O)N(C)[C@@H](CC(C)C)C(=O)N[C@@H](C)C(=O)N[C@H](COC(C)=O)C(=O)N(C)[C@@H](CC(C)C)C(=O)N(C)[C@@H](CC(C)C)C(=O)N(C)[C@@H](C(C)C)C(=O)N1C` [Example 1, [(O-acetyl)-(D)Ser]^8 -Cyclosporine], the “TEST 1.2 IC50” value (mouse-spleen lymphocytes) was less than 0.008 µg/mL and the “TEST 3 MED (minimum effective dosage)” value [1] was 25 mg/kg s.c.

From patent US4764503A, “Novel cyclosporins” (Sandoz Ltd., priority 1987, dated 1988)
